At least one structure is not confirmed: it was looked up by name or label, or the drawing left a doubt.
Tested on: circular strips of hTEB
Experiment: Organ bath studies of hTEB circular strips following omentum implantation
Parameters: species or system human
Conditions: in the presence of calcium channel blocker nifedipine

For COC(=O)C1=C(C)NC(C)=C(C(=O)OC)C1c1ccccc1[N+](=O)[O-] [nifedipine], the “effect on KCl-induced contraction” value was “partially inhibited”.
